Assay results published in the supplement of paper PMC7877785.
± gives the uncertainty stated by the source. Many entries were measured with a wide error.

Test: self-splicing fitness, log relative to wild type (ln ratio); higher = more splicing; Tetrahymena group I intron in knt gene, E. coli kanamycin selection, DiMSum; sequences stand for … in CUCUCU…GGAGGGAAAAGUUAUCAGGCAUGCACCUGGUAGCUAGUCUUUAAACCAAUAGAUUGCAUCGGUUUAAAAGGCAAGACCGUCAAAUUGCGGGAAAGGGGUCAACAGCCGUUCAGUACCAAGUCUCAGGGGAAACUUUGAGAUGGCCUUGCAAAGGGUAUGGUAAUAAGCUGACGGACAUGGUCCUAACCACGCAGCCAAGUCCUAAGUCAACAGAUCUUCUGUUGAUAUGGAUGCAGUUCACAGACUAAAUGUCGGUCGGGGAAGAUGUAUUCUUCUCAUAAGAUAUAGUCGGACCUCUCCUUAAUGGGAGCUAGCGGAUGAAGUGAUGCAACACUGGAGCCGCUGGGAACUAAUUUGUAUGCGAAAGUAUAUUGAUUAGUUUUGGAGUACUCGUGGUCG
How it was run: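 Colonies from six replicate transformations of E. coli BL21(DE3) were pooled and amplicon-sequenced on an Illumina HiSeq 2500. The library placed an intron with all eight P1ex-region nucleotides randomised inside the knt kanamycin-resistance gene on pET-22b(+), and cells grew overnight at 37°C or 30°C on LB agar with or without 25 μg/mL kanamycin (plus 100 μg/mL carbenicillin, 50 μM IPTG, 0.2% rhamnose). Fitness is the DiMSum error-weighted combination of wild-type-normalised replicate fold changes, kanamycin versus none.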

Sequence: GAAAAGCAAUAUUACGCCGC
- self-splicing fitness (ln) (37 °C): -2.13 ± 0.56

Sequence: UAGAAGCAAUAUUACGCCCA
- self-splicing fitness (ln) (30 °C): -0.128 ± 0.15
- self-splicing fitness (ln) (37 °C): 0.21 ± 0.25

Sequence: UCCUAGCAAUAUUACGGCAC
- self-splicing fitness (ln) (30 °C): -4.97 ± 0.72

Sequence: GGAAAGCAAUAUUACGACCC
- self-splicing fitness (ln) (37 °C): -0.44 ± 1.4

Sequence: CUUGAGCAAUAUUACGGAAA
- self-splicing fitness (ln) (30 °C): -1.37 ± 0.6
- self-splicing fitness (ln) (37 °C): -2.99 ± 0.6

Sequence: CAUGAGCAAUAUUACGUCAC
- self-splicing fitness (ln) (37 °C): -3.55 ± 0.52

Sequence: UACGAGCAAUAUUACGAGAA
- self-splicing fitness (ln) (37 °C): -1.83 ± 1.1

Sequence: AUUGAGCAAUAUUACGUAUC
- self-splicing fitness (ln) (37 °C): -2.32 ± 0.78

Sequence: AGGGAGCAAUAUUACGUAUA
- self-splicing fitness (ln) (37 °C): -1.48 ± 0.51

Sequence: AUUUAGCAAUAUUACGUAUC
- self-splicing fitness (ln) (30 °C): -3.57 ± 0.74

Sequence: AUCUAGCAAUAUUACGAUCU
- self-splicing fitness (ln) (30 °C): -1.03 ± 0.13
- self-splicing fitness (ln) (37 °C): 0.148 ± 0.15

Sequence: CUGUAGCAAUAUUACGUCCU
- self-splicing fitness (ln) (37 °C): -1.98 ± 1.1

Sequence: CGAUAGCAAUAUUACGAAGA
- self-splicing fitness (ln) (30 °C): -3.8 ± 1

Sequence: UCCGAGCAAUAUUACGGCUC
- self-splicing fitness (ln) (30 °C): -3.87 ± 0.6

Sequence: AACUAGCAAUAUUACGAAAU
- self-splicing fitness (ln) (30 °C): -2.01 ± 0.09
- self-splicing fitness (ln) (37 °C): -0.94 ± 0.1

Sequence: GGCGAGCAAUAUUACGAAUA
- self-splicing fitness (ln) (30 °C): -1.96 ± 1.2
- self-splicing fitness (ln) (37 °C): -0.638 ± 0.87

Sequence: UCCUAGCAAUAUUACGGCUA
- self-splicing fitness (ln) (30 °C): -3.92 ± 0.52

Sequence: GUCUAGCAAUAUUACGGGAC
- self-splicing fitness (ln) (30 °C): -1.65 ± 0.54

Sequence: CCCUAGCAAUAUUACGAAUG
- self-splicing fitness (ln) (37 °C): -3.61 ± 0.73

Sequence: CCUCAGCAAUAUUACGCGCC
- self-splicing fitness (ln) (30 °C): -4.39 ± 1
- self-splicing fitness (ln) (37 °C): -1.71 ± 0.65

Sequence: GUUCAGCAAUAUUACGCCCA
- self-splicing fitness (ln) (30 °C): -0.553 ± 0.1
- self-splicing fitness (ln) (37 °C): -1.26 ± 0.1

Sequence: AAGGAGCAAUAUUACGCUCC
- self-splicing fitness (ln) (30 °C): -1.32 ± 0.58

Sequence: GCGUAGCAAUAUUACGUACC
- self-splicing fitness (ln) (30 °C): -2.4 ± 0.65
- self-splicing fitness (ln) (37 °C): -1.21 ± 0.67

Sequence: CCAGAGCAAUAUUACGACCC
- self-splicing fitness (ln) (30 °C): -4.5 ± 1
- self-splicing fitness (ln) (37 °C): -1.1 ± 0.65

Sequence: UCGUAGCAAUAUUACGUGUU
- self-splicing fitness (ln) (30 °C): -3.06 ± 0.21
- self-splicing fitness (ln) (37 °C): -2.46 ± 0.19

Sequence: GCUGAGCAAUAUUACGACAG
- self-splicing fitness (ln) (37 °C): -1.88 ± 0.67

Sequence: GGGUAGCAAUAUUACGGGGC
- self-splicing fitness (ln) (30 °C): -2.61 ± 0.54
- self-splicing fitness (ln) (37 °C): -3.07 ± 0.53

Sequence: GGAGAGCAAUAUUACGAGCG
- self-splicing fitness (ln) (30 °C): -3.33 ± 0.64

Sequence: CCUCAGCAAUAUUACGCCGC
- self-splicing fitness (ln) (37 °C): -3.19 ± 0.52

Sequence: UGUGAGCAAUAUUACGCCUC
- self-splicing fitness (ln) (37 °C): -0.735 ± 0.61

Sequence: UCAUAGCAAUAUUACGAUCC
- self-splicing fitness (ln) (30 °C): -3.58 ± 1

Sequence: GGUUAGCAAUAUUACGCCAU
- self-splicing fitness (ln) (37 °C): -0.943 ± 0.84

Sequence: CUGGAGCAAUAUUACGCAUA
- self-splicing fitness (ln) (30 °C): -3.4 ± 0.61

Sequence: UACGAGCAAUAUUACGGUGU
- self-splicing fitness (ln) (30 °C): -5.59 ± 1

Sequence: UGGGAGCAAUAUUACGAGUU
- self-splicing fitness (ln) (30 °C): -3.49 ± 0.52
- self-splicing fitness (ln) (37 °C): -2.29 ± 0.78

Sequence: GCGAAGCAAUAUUACGUCAC
- self-splicing fitness (ln) (30 °C): -4.72 ± 0.51

Sequence: GGGAAGCAAUAUUACGGGUG
- self-splicing fitness (ln) (30 °C): -2.68 ± 0.13
- self-splicing fitness (ln) (37 °C): -2.12 ± 0.18

Sequence: UCAGAGCAAUAUUACGUUAU
- self-splicing fitness (ln) (30 °C): -2.84 ± 0.19
- self-splicing fitness (ln) (37 °C): -3.42 ± 0.4

Sequence: GUUAAGCAAUAUUACGAAGA
- self-splicing fitness (ln) (37 °C): -2.51 ± 0.77

Sequence: UAAGAGCAAUAUUACGAUAA
- self-splicing fitness (ln) (30 °C): -2.8 ± 0.5
- self-splicing fitness (ln) (37 °C): -2.37 ± 0.63

Sequence: ACUGAGCAAUAUUACGGAUC
- self-splicing fitness (ln) (30 °C): -4.37 ± 1

Sequence: UAGGAGCAAUAUUACGCUCU
- self-splicing fitness (ln) (30 °C): -3.83 ± 1

Sequence: AAACAGCAAUAUUACGCCGC
- self-splicing fitness (ln) (30 °C): -3.72 ± 1
- self-splicing fitness (ln) (37 °C): -3.87 ± 0.51

Sequence: UCUGAGCAAUAUUACGGGCU
- self-splicing fitness (ln) (30 °C): -4.42 ± 0.51

Sequence: UGGGAGCAAUAUUACGCUUC
- self-splicing fitness (ln) (37 °C): -2.02 ± 0.57

Sequence: AUGGAGCAAUAUUACGCAAC
- self-splicing fitness (ln) (30 °C): -3.65 ± 0.73
- self-splicing fitness (ln) (37 °C): -2.11 ± 0.57

Sequence: AGUUAGCAAUAUUACGAAUU
- self-splicing fitness (ln) (30 °C): -1.62 ± 0.11
- self-splicing fitness (ln) (37 °C): -0.649 ± 0.12

Sequence: UUCAAGCAAUAUUACGCGGC
- self-splicing fitness (ln) (30 °C): -2.36 ± 0.67
- self-splicing fitness (ln) (37 °C): -2.03 ± 0.66

Sequence: UUUGAGCAAUAUUACGAGAC
- self-splicing fitness (ln) (30 °C): -3.97 ± 1
- self-splicing fitness (ln) (37 °C): -2.42 ± 0.54

Sequence: CCAGAGCAAUAUUACGUACU
- self-splicing fitness (ln) (30 °C): -4.58 ± 0.72

Sequence: UUUGAGCAAUAUUACGAUUC
- self-splicing fitness (ln) (30 °C): -3.07 ± 1.1
- self-splicing fitness (ln) (37 °C): -2.04 ± 0.85

Sequence: UAUGAGCAAUAUUACGACUU
- self-splicing fitness (ln) (37 °C): -2.37 ± 0.56
